Source: PubChem BioAssay AID602196 (INSERM, 2012)

Screen: 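Modifiers of cisplatin sensitivity in A549 cells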
Cell system: human A549 lung cancer cells
Reagent: siRNA pair against human genes
Time to read-out: 48 h transfection before cisplatin; time from cisplatin to read-out not stated
Challenge: cisplatin at a dose killing half of control-siRNA cells; exact dose and duration not given
Detection: 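Shift in cisplatin death relative to control siRNA, from -50 (all cells die) to +50 (no cells die); siRNAs harmful on their own scored 0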
Reading the numbers: two-siRNA summed score (-2 to +2): higher = both siRNAs protect from cisplatin killing; -2 means both sensitise
Hit rule: 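Each siRNA scores 0 if harmful alone by LDH or WST-1, otherwise +1 if it reduces and -1 if it increases cisplatin killing; a gene is active when both siRNAs agree (sum +2 or -2)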
Meaning of the calls: active = both siRNAs shift cisplatin killing the same way; inactive = no consistent shift, or siRNA harmful alone
This is a random part of about 23,000 reagents tested. Of all reagents, 455 (2%) got an active call. 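Active includes both protection and sensitisation; some change values fall well beyond the stated -50 to +50 range.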 Not all columns of the deposit are shown. The record does not give: the amount of reagent.

VDAC1 (voltage dependent anion channel 1) [SID131502075]
- two-siRNA summed score (-2 to +2): -1
- outcome: inactive

CRACD (capping protein inhibiting regulator of actin dynamics) [SID131515067]
- two-siRNA summed score (-2 to +2): 0
- outcome: inactive

LOC389319 [SID131509497]
- two-siRNA summed score (-2 to +2): 0
- outcome: inactive

LMAN1L (lectin, mannose binding 1 like) [SID131506386]
- two-siRNA summed score (-2 to +2): 0
- outcome: inactive

TPTE2 [SID131501546]
- two-siRNA summed score (-2 to +2): -1
- outcome: inactive

TAS2R19 (taste 2 receptor member 19) [SID131501615]
- two-siRNA summed score (-2 to +2): -1
- outcome: inactive

DCHS2 (dachsous cadherin-related 2) [SID131503019]
- two-siRNA summed score (-2 to +2): 0
- outcome: inactive

OR8D1 (olfactory receptor family 8 subfamily D member 1) [SID131504646]
- two-siRNA summed score (-2 to +2): 0
- outcome: inactive

BRS3 (bombesin receptor subtype 3) [SID131521748]
- two-siRNA summed score (-2 to +2): 1
- outcome: inactive

DPP6 (dipeptidyl peptidase like 6) [SID131507514]
- two-siRNA summed score (-2 to +2): 0
- outcome: inactive

SVIL (supervillin) [SID131503611]
- two-siRNA summed score (-2 to +2): 0
- outcome: inactive

PINK1 (PTEN induced kinase 1) [SID131514158]
- two-siRNA summed score (-2 to +2): 0
- outcome: inactive

LOC390243 [SID131517934]
- two-siRNA summed score (-2 to +2): 0
- outcome: inactive

LOC440735 [SID131509605]
- two-siRNA summed score (-2 to +2): 0
- outcome: inactive

LOC388568 [SID131516677]
- two-siRNA summed score (-2 to +2): 0
- outcome: inactive

COL17A1 (collagen type XVII alpha 1 chain) [SID131514570]
- two-siRNA summed score (-2 to +2): 0
- outcome: inactive

MFSD12 (major facilitator superfamily domain containing 12) [SID131506421]
- two-siRNA summed score (-2 to +2): 0
- outcome: inactive

MTARC2 (mitochondrial amidoxime reducing component 2) [SID131507028]
- two-siRNA summed score (-2 to +2): 0
- outcome: inactive

ALDH6A1 (aldehyde dehydrogenase 6 family member A1) [SID131501049]
- two-siRNA summed score (-2 to +2): -1
- outcome: inactive

LINC01342 (long independently transcribed non-coding RNA 1342) [SID131509860]
- two-siRNA summed score (-2 to +2): 0
- outcome: inactive

RSPH3 (radial spoke head 3) [SID131519085]
- two-siRNA summed score (-2 to +2): 1
- outcome: inactive

GUCY1B2 (guanylate cyclase 1 soluble subunit beta 2 (pseudogene)) [SID131502284]
- two-siRNA summed score (-2 to +2): -1
- outcome: inactive

GALNT18 (polypeptide N-acetylgalactosaminyltransferase 18) [SID131516155]
- two-siRNA summed score (-2 to +2): 0
- outcome: inactive

ZBP1 (Z-DNA binding protein 1) [SID131506029]
- two-siRNA summed score (-2 to +2): 0
- outcome: inactive

IL17B (interleukin 17B) [SID131500481]
- two-siRNA summed score (-2 to +2): -1
- outcome: inactive

GJA4 (gap junction protein alpha 4) [SID131501794]
- two-siRNA summed score (-2 to +2): -1
- outcome: inactive

CPM (carboxypeptidase M) [SID131521426]
- two-siRNA summed score (-2 to +2): 1
- outcome: inactive

LOC146443 [SID131518296]
- two-siRNA summed score (-2 to +2): 0
- outcome: inactive

CCL28 (C-C motif chemokine ligand 28) [SID131501851]
- two-siRNA summed score (-2 to +2): -1
- outcome: inactive

SMPX (small muscle protein X-linked) [SID131511540]
- two-siRNA summed score (-2 to +2): 0
- outcome: inactive

LOC389305 [SID131518884]
- two-siRNA summed score (-2 to +2): 0
- outcome: inactive
